Data as given in PubChem BioAssay AID1159578 (Peter MacCallum Cancer Centre, 2015)

Assay: 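Knock-downs that alter how fast lymphatic endothelial cells migrate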 (primary screen)
Cells: human lymphatic endothelial cells
Knock-down reagent: siRNA pool against human genes, 40 nM
Time to read-out: 48 h after transfection
Measured: 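Cells stained with dye and imaged after a scratch; covered wound area and nuclei counted, duplicates averaged, migration set against mock wells and turned into a robust z-score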
Direction: migration robust z-score: higher = faster migration into the scratch; migration relative to mock: higher = more scratch area covered than mock; nuclei per well: higher = more cells in the well
Active means: 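Migration changed when robust z exceeds 2 or falls below -2 and mean nuclei number is at least 3300; otherwise not called changed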
Meaning of the calls: active = migration changed; inactive = no migration change, or too few cells
This is one part, drawn at random, of about 18,000 deposited reagents. In the full data, about 1,030 (5.7%) were called active. 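Inactive calls also include pools with fewer than 3300 nuclei, whose migration was not assessed.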 Raw values are not corrected between plates. Reagents against one gene are numbered here. No sequences are given here.

| gene | reagent no. | migration robust z-score | migration class with cell-count check | migration relative to mock | nuclei per well, duplicate mean | outcome |
| --- | --- | --- | --- | --- | --- | --- |
| TDP2 (GeneID 51567) | 1 | -0.65 | migration z between -2 and 2; enough cells | 0.68 | 6271 | inactive |
| PSMA3 (GeneID 5684) | 1 | 0.52 | migration z between -2 and 2; enough cells | 0.9 | 5472 | inactive |
| FIGN (GeneID 55137) | 1 | 0.35 | migration z between -2 and 2; enough cells | 0.98 | 4605 | inactive |
| S100A7A (GeneID 338324) | 1 | -0.56 | migration z between -2 and 2; enough cells | 0.74 | 4750 | inactive |
| COPS4 (GeneID 51138) | 1 | 1.38 | migration z between -2 and 2; enough cells | 1.24 | 5590 | inactive |
| IFI35 (GeneID 3430) | 1 | 1.54 | migration z between -2 and 2; enough cells | 1.28 | 6097 | inactive |
| GPR34 (GeneID 2857) | 1 | 0.7 | migration z between -2 and 2; enough cells | 0.94 | 4461 | inactive |
| EFCAB13 (GeneID 124989) | 1 | -1.39 | migration z between -2 and 2; enough cells | 0.53 | 4224 | inactive |
| ADAM11 (GeneID 4185) | 1 | 0.1 | migration z between -2 and 2; enough cells | 0.82 | 5804 | inactive |
| MOCOS (GeneID 55034) | 1 | 0.15 | migration z between -2 and 2; enough cells | 0.84 | 7607 | inactive |
| CD44 (GeneID 960) | 1 | 0.69 | migration z between -2 and 2; enough cells | 1.06 | 6440 | inactive |
| PSD4 (GeneID 23550) | 1 | 0.3 | migration z between -2 and 2; enough cells | 0.97 | 7382 | inactive |
| IFNGR2 (GeneID 3460) | 1 | 0.16 | migration z between -2 and 2; enough cells | 0.84 | 5939 | inactive |
| GRIP1 (GeneID 23426) | 1 | 0.23 | migration z between -2 and 2; enough cells | 0.94 | 5095 | inactive |
| GFPT2 (GeneID 9945) | 1 | 0.57 | migration z between -2 and 2; enough cells | 0.92 | 5933 | inactive |
| CMKLR1 (GeneID 1240) | 1 | -0.8 | migration z between -2 and 2; enough cells | 0.65 | 5266 | inactive |
| DCDC1 (GeneID 341019) | 1 | -0.16 | migration z between -2 and 2; enough cells | 0.84 | 6270 | inactive |
| DCDC1 (GeneID 341019) | 2 | 0.84 | migration z between -2 and 2; enough cells | 1.1 | 6957 | inactive |
| GPR141 (GeneID 353345) | 1 | -0.24 | migration z between -2 and 2; enough cells | 0.76 | 5652 | inactive |
| DMRTC1B (GeneID 728656) | 1 | 1.41 | migration z between -2 and 2; enough cells | 1.25 | 6182 | inactive |
| RIMS3 (GeneID 9783) | 1 | -2.6 | under 3300 nuclei; migration not judged | 0.21 | 2985 | inactive |
| NEUROG1 (GeneID 4762) | 1 | -3.02 | under 3300 nuclei; migration not judged | 0.1 | 3006 | inactive |
| MAP3K19 (GeneID 80122) | 1 | -0.76 | migration z between -2 and 2; enough cells | 0.66 | 6298 | inactive |

A run of entries taken from the entries so far:
| gene | reagent no. | migration robust z-score | migration class with cell-count check | migration relative to mock | nuclei per well, duplicate mean | outcome |
| --- | --- | --- | --- | --- | --- | --- |
| DCDC1 (GeneID 341019) | 1 | -0.16 | migration z between -2 and 2; enough cells | 0.84 | 6270 | inactive |
| DCDC1 (GeneID 341019) | 2 | 0.84 | migration z between -2 and 2; enough cells | 1.1 | 6957 | inactive |
| GPR141 (GeneID 353345) | 1 | -0.24 | migration z between -2 and 2; enough cells | 0.76 | 5652 | inactive |
| DMRTC1B (GeneID 728656) | 1 | 1.41 | migration z between -2 and 2; enough cells | 1.25 | 6182 | inactive |
